These are literature values, as cited in patent publication US10258574B2, “Method of preparing itraconazole preparation” (CHANGZHOU PHARMACEUTICAL FACTORY CO., LTD., priority 2015, dated 2019).

Like-named read-outs stand apart in the source and are kept apart here.

`CCC(C)n1ncn(-c2ccc(N3CCN(c4ccc(OCC5COC(Cn6cncn6)(c6ccc(Cl)cc6Cl)O5)cc4)CC3)cc2)c1=O` (centres unmarked) [Itraconazole]: the saturated solubility is less than 0.001 µg/mL (aqueous solution at a neutral pH) and 6 µg/mL (hydrochloric acid solution at pH=1).
